Reference: patent publication US20220362122A1, “Hair Treatment Compositions With Amine Derivatives” (ELC Management LLC, priority 2021, published 2022)

Assay: Odor evaluation by professional perfumer
Details: control = base formula with no alkalizer

## Ammonium hydroxide [reference compound]
Primary alkanolamine compositions
  order from no malodor to strongest malodor: Control>AMPD=Serinol>Tris>MEA=AMP>AEPD>NH3
Tertiary alkanolamine compositions
  order from no malodor to strongest malodor: Control>DMAMP>DMAPD>NH3
